Experimental data published in publication PMC10621219.
No constants are given. Whether binding was seen depends on the method and setting. Binding seen in cells or lysates may run through a third protein. A yes stands for co-enrichment or nearness to the bait. Other partners may have been found. Where a sequence is shown, tags or fusion partners need not be part of it.

Amino acid sequences for entries named in this document (tags omitted).
UniProt P08670: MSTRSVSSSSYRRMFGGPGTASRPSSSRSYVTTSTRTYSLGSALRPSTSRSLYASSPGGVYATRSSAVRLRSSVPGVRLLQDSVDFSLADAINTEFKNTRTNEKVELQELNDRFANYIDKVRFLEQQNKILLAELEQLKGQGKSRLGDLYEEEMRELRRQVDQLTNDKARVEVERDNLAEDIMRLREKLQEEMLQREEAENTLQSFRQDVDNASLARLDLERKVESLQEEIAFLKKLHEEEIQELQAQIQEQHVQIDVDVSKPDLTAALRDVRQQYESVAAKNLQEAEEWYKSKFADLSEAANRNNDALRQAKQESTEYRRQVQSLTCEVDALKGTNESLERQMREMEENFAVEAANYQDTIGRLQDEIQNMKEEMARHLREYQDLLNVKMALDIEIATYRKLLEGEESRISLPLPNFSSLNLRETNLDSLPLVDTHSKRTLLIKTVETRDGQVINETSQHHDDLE

Target: T1, Flag-tagged FAM171B (family with sequence similarity 171B), overexpressed in T24 cells (UniProt Q6P995)
T1 sequence: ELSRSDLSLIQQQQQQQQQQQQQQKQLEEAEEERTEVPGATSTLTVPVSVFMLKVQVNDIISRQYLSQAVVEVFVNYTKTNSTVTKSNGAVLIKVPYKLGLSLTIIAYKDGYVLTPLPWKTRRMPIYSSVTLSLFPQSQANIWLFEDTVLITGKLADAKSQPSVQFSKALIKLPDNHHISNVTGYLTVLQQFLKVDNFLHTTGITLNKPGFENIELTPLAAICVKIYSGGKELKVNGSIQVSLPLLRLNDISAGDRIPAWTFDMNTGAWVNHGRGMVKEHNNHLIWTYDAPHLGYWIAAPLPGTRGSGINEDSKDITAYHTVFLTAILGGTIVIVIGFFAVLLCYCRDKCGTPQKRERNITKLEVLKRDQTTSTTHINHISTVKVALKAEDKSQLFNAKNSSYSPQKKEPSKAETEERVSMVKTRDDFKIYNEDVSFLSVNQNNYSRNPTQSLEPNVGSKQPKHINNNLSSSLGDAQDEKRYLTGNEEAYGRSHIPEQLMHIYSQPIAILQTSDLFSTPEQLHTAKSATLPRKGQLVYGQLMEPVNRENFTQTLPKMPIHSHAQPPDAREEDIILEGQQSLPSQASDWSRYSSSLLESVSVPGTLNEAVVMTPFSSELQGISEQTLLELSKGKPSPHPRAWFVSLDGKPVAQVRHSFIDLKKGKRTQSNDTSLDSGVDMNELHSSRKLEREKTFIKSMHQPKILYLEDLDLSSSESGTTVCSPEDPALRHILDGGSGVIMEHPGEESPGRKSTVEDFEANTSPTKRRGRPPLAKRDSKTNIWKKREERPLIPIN
Experiment: affinity purification with mass spectrometry; lysates of T24 cells overexpressing flag-tagged FAM171B and of control T24 cells incubated with Anti-DYKDDDDK beads at 4 °C for 4 h; denaturing elution; mass spectrometry of the eluate

binding: binds
Substance: vimentin, endogenous in T24 cells (from UniProt P08670 1-466)
